Reference: patent US10888518B2, “Orodispersible tablet containing estetrol” (ESTETRA SPRL, priority 2015, dated 2021)
At least one read-out could not be matched to a standard name with certainty.

Test: Randomized, open-label, two-period, cross-over pharmacokinetic study, sublingual versus oral estetrol
Type: in vivo, human
Conditions: 10 mg estetrol, 80 mg sublingual tablet vs 83 mg oral tablet, healthy female volunteers, fasting
Experimental: A randomized, open-label, two-period, cross-over, pharmacokinetic study is conducted to compare sublingual bioavailability of 10 mg estetrol administered in one 80 mg tablet with oral availability of estetrol contained in a 83 mg tablet containing 10 mg estetrol. These tablets are administered sublingually and orally to healthy female volunteers under fasting conditions.
Ten healthy female subjects are selected on the basis of the following criteria: age of 45-65 years (inclusive), nonsmokers or past smokers (at least 6 months before dosing), body-mass index (BMI)=18.5 to 30 kg/m^2 (inclusive at the time of the screening).
At the start of the first and the second period of the study, between 07:00 am and 07:28 am, 5 subjects receive a single dose of the sublingual formulation of estetrol by administering one estetrol tablet (tablet weight 80 mg; 10 mg estetrol) and 5 subjects receive a single oral dose of the oral estetrol formulation by administering one estetrol tablet (tablet weight 83 mg; 10 mg estetrol), ingested together with 200 ml water. […]
The estetrol concentration in the collected blood samples is determined by means of HPLC/MS/MS. The concentrations of glucuronided estetrol (D-ring) in the urine samples is also determined with the help of HPLC/MS/MS.

Compound: C[C@]12CC[C@@H]3c4ccc(O)cc4CC[C@H]3[C@@H]1[C@@H](O)[C@@H](O)[C@@H]2O [estetrol, 1,3,5 (10)-estratrien-3,15α,16α,17β-tetrol]
- Onset of bioavailability, sublingual compared to oral: earlier bioavailability compared to orally administered estetrol
